Results deposited as PubChem BioAssay AID504784 (Drosophila RNAi Screening Center, 2011).
The deposit covers about 17,000 reagents; below is a random part of those that have a named target and a result. 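Each column is one replicate's B-score; the combined score over replicates was not deposited, so single values may mislead.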 Names joined by + are all predicted targets of the reagent. Further read-outs or replicates are left out here. Reagent sequences are not shown.

Purpose: 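Genome-wide knock-down for genes giving too much or too little stored lipid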 (primary screen)
System: Drosophila Kc167 embryonic cells
Knock-down reagent: long dsRNA against Drosophila genes, about 250 ng dsRNA per well
Timing: 4 days
Conditions: cells fed 400 µM oleic acid bound to BSA
Measurement: 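Microscope images give a droplet-to-nucleus area ratio, taken as log and converted to a screen-wide B-score; higher values mean greater lipid storage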
Reading the numbers: droplet/nuclear area B-score: higher = more stored lipid (overstorage)

gene knocked down	dsRNA	droplet/nuclear area B-score, replicate 1
Rilpl (Rab interacting lysosomal protein like)	DRSC18494	0.714
Rac1	DRSC08688	-0.0511
CG17917	DRSC12570	1.53
Alg1 (ALG1, chitobiosyldiphosphodolichol beta-mannosyltransferase)	DRSC15297	0.182
CG14402	DRSC02386	-0.588
CG4161	DRSC01930	0.468
CG31296	DRSC13092	-0.684
Mst84Dd (Male-specific RNA 84Dd)	DRSC12600	-1.05
per (period)	DRSC18818	-2
Chpf (Chondroitin polymerizing factor)	DRSC19491	-0.0686
Chpf (Chondroitin polymerizing factor)	DRSC19893	0.0559
CG7611	DRSC11840	1.37
CR31824 (pseudo)	DRSC01517	1.32
dysf (dysfusion)	DRSC14529	-0.234
dysf (dysfusion)	DRSC14895	0.0214
dysf (dysfusion)	DRSC14896	-0.689
dysf (dysfusion)	DRSC14897	-0.627
CG13060	DRSC09943	-0.739
Piezo	DRSC03092	-2.14
lncRNA:Hsromega (Heat shock RNA omega)	DRSC22875	-0.674
eas (easily shocked)	DRSC20329	-1.08
JhI-26 (Juvenile hormone-inducible protein 26)	DRSC06851	-0.623
Cdk7 (Cyclin-dependent kinase 7)	DRSC18451	0.163
Cdk7 (Cyclin-dependent kinase 7)	DRSC23327	0.00315
ft (fat)	DRSC00819	0.283
imd (immune deficiency)	DRSC05928	0.528
ball (ballchen)	DRSC14145	-0.0493
CG2839	DRSC00544	-0.686
Skp2 + CG1103	DRSC12160	0.952
Skp2 + CG1103	DRSC22356	-0.0764
CG6295	DRSC16012	0.0181
shps (sheepish)	DRSC14614	-0.897
Prp38 (pre-mRNA processing factor 38)	DRSC07060	0.655
y (yellow)	DRSC18853	0.0851
CG5937	DRSC18392	1.51
MED22 (Mediator complex subunit 22)	DRSC18175	-0.14
RanBPM (Ran-binding protein M)	DRSC06079	-0.786
CG42720 (retired record)	DRSC22549	-0.433
sinah (sina homologue)	DRSC09910	0.361
sinah (sina homologue)	DRSC22181	-0.0527
Dpit47 (DNA polymerase interacting tpr containing protein of 47kD)	DRSC04985	0.314
CG31386 (retired record)	DRSC22769	0.556
CG31386 (retired record)	DRSC23186	-0.318
dve (defective proventriculus)	DRSC04680	2.43
Parg (Poly(ADP-ribose) glycohydrolase)	DRSC18696	-1.03
Acox57D-p (acyl-Coenzyme A oxidase at 57D proximal)	DRSC04560	-0.435
RpL7 (Ribosomal protein L7)	DRSC03417	4.41
Gr97a (Gustatory receptor 97a)	DRSC13802	-0.556
Cftr (CF transmembrane conductance regulator)	DRSC15872	1.07
CG42565	DRSC04154	0.757
ova (ovaries absent)	DRSC02879	-0.795
NdufV3 (NADH:ubiquinone oxidoreductase subunit V3)	DRSC19423	0.59
Rpt1 (Regulatory particle triple-A ATPase 1)	DRSC07542	1.06
CG42240	DRSC18097	-0.399
LeuRS-m (Leucyl-tRNA synthetase, mitochondrial)	DRSC08595	0.247
laf (labial associated factor)	DRSC12246	-0.822
